The source of these data is article PMC8389370, “pUL21 is a viral phosphatase adaptor that promotes herpes simplex virus replication and spread” (PLoS Pathogens, 2021).

By UniProt entry, the sequences of proteins in these tests, tags left out.
UniProt F8RG07: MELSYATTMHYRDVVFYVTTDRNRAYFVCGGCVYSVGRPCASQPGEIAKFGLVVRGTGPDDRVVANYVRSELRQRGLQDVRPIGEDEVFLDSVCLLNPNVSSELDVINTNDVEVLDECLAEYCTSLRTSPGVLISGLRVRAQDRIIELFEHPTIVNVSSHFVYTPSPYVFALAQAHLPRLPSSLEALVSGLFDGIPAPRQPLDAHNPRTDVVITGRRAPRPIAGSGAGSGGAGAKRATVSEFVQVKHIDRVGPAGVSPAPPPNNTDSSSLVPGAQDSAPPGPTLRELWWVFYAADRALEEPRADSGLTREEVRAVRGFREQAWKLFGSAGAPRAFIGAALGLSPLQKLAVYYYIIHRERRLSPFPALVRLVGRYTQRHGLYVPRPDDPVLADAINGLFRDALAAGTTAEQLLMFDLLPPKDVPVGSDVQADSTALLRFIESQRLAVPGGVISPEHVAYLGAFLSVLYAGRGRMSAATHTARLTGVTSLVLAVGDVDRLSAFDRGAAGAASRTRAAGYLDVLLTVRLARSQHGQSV
UniProt P62140: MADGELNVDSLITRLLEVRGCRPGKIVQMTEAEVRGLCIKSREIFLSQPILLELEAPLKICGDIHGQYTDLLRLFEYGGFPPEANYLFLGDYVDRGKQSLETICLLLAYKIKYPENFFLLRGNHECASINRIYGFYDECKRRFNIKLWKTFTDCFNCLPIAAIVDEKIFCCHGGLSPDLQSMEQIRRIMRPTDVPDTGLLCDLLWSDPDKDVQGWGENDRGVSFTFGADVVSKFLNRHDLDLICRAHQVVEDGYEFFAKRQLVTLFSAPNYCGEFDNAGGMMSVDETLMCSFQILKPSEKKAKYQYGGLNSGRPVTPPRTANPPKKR
UniProt P62136: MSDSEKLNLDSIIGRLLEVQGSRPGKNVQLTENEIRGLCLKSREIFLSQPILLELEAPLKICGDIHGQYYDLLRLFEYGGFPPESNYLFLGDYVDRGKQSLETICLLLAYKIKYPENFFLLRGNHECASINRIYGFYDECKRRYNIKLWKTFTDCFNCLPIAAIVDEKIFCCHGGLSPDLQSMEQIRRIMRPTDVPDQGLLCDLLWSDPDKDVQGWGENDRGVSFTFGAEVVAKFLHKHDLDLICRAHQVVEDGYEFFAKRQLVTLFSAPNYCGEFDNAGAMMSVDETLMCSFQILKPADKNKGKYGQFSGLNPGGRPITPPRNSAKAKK

Where two headings read alike, the source gives them in different places. No constants are given. Whether binding was seen depends on the method and setting. For some of these results: In cells and extracts the contact can be indirect. Some results given as binding are weak or reduced against the parent protein; the word gives no strength.

In experiment [1] the target is C-terminally GFP-tagged pUL21 (pUL21-GFP), wild type (HSV-1 strain KOS) (UniProt F8RG07). Description: co-IP; HEK293T cells transfected with GFP-tagged bait, lysed 24 h post-transfection, captured on GFP affinity resin (GFP-TRAP), SDS-PAGE and immunoblot of endogenous partners.
Experiment [2] has as its target full-length C-terminally hexahistidine-tagged pUL21 (pUL21-H6) (HSV-1 strain KOS) (UniProt F8RG07). Description: SEC-MALS; 100 μL of 1 mg/mL UL21-H6 on Superdex 200 10/300, 20 mM Tris pH 7.5, 200 mM NaCl, 1 mM DTT, room temperature; both purified.
The target of experiment [3] is C-terminally GFP-tagged pUL21 (pUL21-GFP), wild type (HSV-1 strain KOS) (UniProt F8RG07). Description: co-IP; HEK293T cells transfected with GFP-tagged bait, lysed 24 h post-transfection, captured on GFP affinity resin (GFP-TRAP), SDS-PAGE and immunoblot of endogenous partners. The source holds these as a separate data set.

Consider “PP1 catalytic subunit isoform β (from UniProt P62140 1-327) (enzyme)”, for which, in experiment [1], the binding result was “binds”. Still for that read-out and setting: in the case of “PP1 catalytic subunit isoform α (from UniProt P62136 1-330) (enzyme)” it was “binds”.

With “full-length C-terminally hexahistidine-tagged pUL21 (pUL21-H6) (from UniProt F8RG07 1-535)”, the binding entry in experiment [2] was “no binding (tested: 1 mg/mL injected)”.

B1: ceramide-transport protein CERT, endogenous (protein, UniProt Q9Y5P4 1-624)
chain: MSDNQSWNSSGSEEDPETESGPPVERCGVLSKWTNYIHGWQDRWVVLKNNALSYYKSEDETEYGCRGSICLSKAVITPHDFDECRFDISVNDSVWYLRAQDPDHRQQWIDAIEQHKTESGYGSESSLRRHGSMVSLVSGASGYSATSTSSFKKGHSLREKLAEMETFRDILCRQVDTLQKYFDACADAVSKDELQRDKVVEDDEDDFPTTRSDGDFLHSTNGNKEKLFPHVTPKGINGIDFKGEAITFKATTAGILATLSHCIELMVKREDSWQKRLDKETEKKRRTEEAYKNAMTELKKKSHFGGPDYEEGPNSLINEEEFFDAVEAALDRQDKIEEQSQSEKVRLHWPTSLPSGDAFSSVGTHRFVQKPYSRSSSMSSIDLVSASDDVHRFSSQVEEMVQNHMTYSLQDVGGDANWQLVVEEGEMKVYRREVEENGIVLDPLKATHAVKGVTGHEVCNYFWNVDVRNDWETTIENFHVVETLADNAIIIYQTHKRVWPASQRDVLYLSVIRKIPALTENDPETWIVCNFSVDHDSAPLNNRCVRAKINVAMICQTLVSPPEGNQEISRDNILCKITYVANVNPGGWAPASVLRAVAKREYPKFLKRFTSYVQEKTAGKPILF
Consider B1, for which the binding result in experiment [3] was “binds”.
